{"source": "PubChem BioAssay AID652272 (Drosophila RNAi Screening Center, 2013)", "aim": "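Genome-wide knock-down search for components of Hedgehog signalling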 (primary screen)", "cells": "Drosophila clone 8 (Cl8) cells", "reagent": "long dsRNA against Drosophila genes", "read-out": "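Firefly light from a Hedgehog-responsive ptc promoter reporter and Renilla reference light, both read on a plate reader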", "direction": "firefly Hh reporter signal: higher = more ptc reporter light; Renilla reference signal: higher = more Renilla control light", "rule for the call": "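Called a hit if the two-replicate mean z-score lies below -2 or above +3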", "calls": "active = hit: reporter lowered or raised; inactive = not a hit", "note": "The deposit covers about 21,000 reagents; below is a random part of those with a known target gene and a result. Of all reagents, 503 (2.4%) got an active call. 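Raw plate light values, not normalised; calls rest on replicate z-scores that were not deposited; hits include reporter decreases as well as increases.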 A number with no mark means an inactive call. Not given: the amount of reagent, the time to read-out."}
{"gene knocked down": "CG13481", "amplicon": "DRSC10023", "firefly Hh reporter signal, replicate 1": 83398, "Renilla reference signal, replicate 1": 2921, "Renilla reference signal, replicate 2": 2429}
{"gene knocked down": "ebo (ellipsoid body open)", "amplicon": "DRSC18787", "firefly Hh reporter signal, replicate 1": 83207, "firefly Hh reporter signal, replicate 2": 63872, "Renilla reference signal, replicate 1": 1788, "Renilla reference signal, replicate 2": 2081}
{"gene knocked down": "hng1 (hinge1)", "amplicon": "DRSC04555", "firefly Hh reporter signal, replicate 1": 80812, "firefly Hh reporter signal, replicate 2": 56088, "Renilla reference signal, replicate 1": 3410, "Renilla reference signal, replicate 2": 2311}
{"gene knocked down": "Tssk (Testis-specific serine/threonine kinase)", "amplicon": "DRSC14784", "firefly Hh reporter signal, replicate 1": 6.08e5, "firefly Hh reporter signal, replicate 2": 93593, "Renilla reference signal, replicate 1": 29384, "Renilla reference signal, replicate 2": 2664}
{"gene knocked down": "CG9890", "amplicon": "DRSC04590", "firefly Hh reporter signal, replicate 1": 71602, "firefly Hh reporter signal, replicate 2": 48517, "Renilla reference signal, replicate 1": 1417, "Renilla reference signal, replicate 2": 4569}
{"gene knocked down": "RAF2 (RING-associated factor 2)", "amplicon": "DRSC10443", "firefly Hh reporter signal, replicate 1": 1.20e5, "firefly Hh reporter signal, replicate 2": 67995, "Renilla reference signal, replicate 1": 4485, "Renilla reference signal, replicate 2": 2329}
{"gene knocked down": "RAF2 (RING-associated factor 2)", "amplicon": "DRSC10454", "firefly Hh reporter signal, replicate 1": 89457, "Renilla reference signal, replicate 1": 5333, "Renilla reference signal, replicate 2": 2813}
{"gene knocked down": "Ccm3 (Cerebral cavernous malformation 3)", "amplicon": "DRSC15711", "firefly Hh reporter signal, replicate 1": 1.16e5, "firefly Hh reporter signal, replicate 2": 1.31e5, "Renilla reference signal, replicate 1": 3767, "Renilla reference signal, replicate 2": 3401}
{"gene knocked down": "Aasdh (Aminoadipate-semialdehyde dehydrogenase)", "amplicon": "DRSC03467", "firefly Hh reporter signal, replicate 1": 86752, "firefly Hh reporter signal, replicate 2": 59809, "Renilla reference signal, replicate 1": 2154, "Renilla reference signal, replicate 2": 5413}

An excerpt of the results above, as a working copy:
{"gene knocked down": "CG9890", "amplicon": "DRSC04590", "firefly Hh reporter signal, replicate 1": 71602, "firefly Hh reporter signal, replicate 2": 48517, "Renilla reference signal, replicate 1": 1417, "Renilla reference signal, replicate 2": 4569}
{"gene knocked down": "RAF2 (RING-associated factor 2)", "amplicon": "DRSC10443", "firefly Hh reporter signal, replicate 1": 1.20e5, "firefly Hh reporter signal, replicate 2": 67995, "Renilla reference signal, replicate 1": 4485, "Renilla reference signal, replicate 2": 2329}
{"gene knocked down": "RAF2 (RING-associated factor 2)", "amplicon": "DRSC10454", "firefly Hh reporter signal, replicate 1": 89457, "Renilla reference signal, replicate 1": 5333, "Renilla reference signal, replicate 2": 2813}
{"gene knocked down": "Ccm3 (Cerebral cavernous malformation 3)", "amplicon": "DRSC15711", "firefly Hh reporter signal, replicate 1": 1.16e5, "firefly Hh reporter signal, replicate 2": 1.31e5, "Renilla reference signal, replicate 1": 3767, "Renilla reference signal, replicate 2": 3401}

Continued:
{"gene knocked down": "CR30374 (pseudo)", "amplicon": "DRSC05080", "firefly Hh reporter signal, replicate 1": 1.26e5, "firefly Hh reporter signal, replicate 2": 2.36e5, "Renilla reference signal, replicate 1": 3584, "Renilla reference signal, replicate 2": 12168}
{"gene knocked down": "Vm32E (Vitelline membrane 32E)", "amplicon": "DRSC03474", "firefly Hh reporter signal, replicate 1": 1.03e5, "firefly Hh reporter signal, replicate 2": 61250, "Renilla reference signal, replicate 1": 2684, "Renilla reference signal, replicate 2": 5074}
{"gene knocked down": "Obp44a (Odorant-binding protein 44a)", "amplicon": "DRSC06838", "firefly Hh reporter signal, replicate 1": 1.09e5, "firefly Hh reporter signal, replicate 2": 51739, "Renilla reference signal, replicate 1": 2777, "Renilla reference signal, replicate 2": 4457}
{"gene knocked down": "CG34323", "amplicon": "DRSC18916", "firefly Hh reporter signal, replicate 1": 3.84e5, "firefly Hh reporter signal, replicate 2": 1.28e5, "Renilla reference signal, replicate 1": 23010, "Renilla reference signal, replicate 2": 2739}
{"gene knocked down": "Cyp12c1 (Cytochrome P450 12c1)", "amplicon": "DRSC11125", "firefly Hh reporter signal, replicate 1": 78280, "firefly Hh reporter signal, replicate 2": 43205, "Renilla reference signal, replicate 1": 3953, "Renilla reference signal, replicate 2": 1297}
{"gene knocked down": "CG6337", "amplicon": "DRSC06977", "firefly Hh reporter signal, replicate 1": 1.38e5, "firefly Hh reporter signal, replicate 2": 1.13e5, "Renilla reference signal, replicate 1": 2971, "Renilla reference signal, replicate 2": 8298}
{"gene knocked down": "CG43386", "amplicon": "DRSC17980", "firefly Hh reporter signal, replicate 1": 62819, "firefly Hh reporter signal, replicate 2": 1.29e5, "Renilla reference signal, replicate 1": 1843, "Renilla reference signal, replicate 2": 5365}
{"gene knocked down": "Mical (Molecule interacting with CasL)", "amplicon": "DRSC14349", "firefly Hh reporter signal, replicate 1": 66019, "firefly Hh reporter signal, replicate 2": 1.16e5, "Renilla reference signal, replicate 1": 2112, "Renilla reference signal, replicate 2": 2960}
{"gene knocked down": "Mical (Molecule interacting with CasL)", "amplicon": "DRSC14351", "firefly Hh reporter signal, replicate 1": 1.02e5, "firefly Hh reporter signal, replicate 2": 1.38e5, "Renilla reference signal, replicate 1": 2952, "Renilla reference signal, replicate 2": 4417}
{"gene knocked down": "Mical (Molecule interacting with CasL)", "amplicon": "DRSC15365", "firefly Hh reporter signal, replicate 1": 93029, "firefly Hh reporter signal, replicate 2": 1.14e5, "Renilla reference signal, replicate 1": 2599, "Renilla reference signal, replicate 2": 3165}
{"gene knocked down": "Mical (Molecule interacting with CasL)", "amplicon": "DRSC15366", "firefly Hh reporter signal, replicate 1": 79600, "firefly Hh reporter signal, replicate 2": 1.17e5, "Renilla reference signal, replicate 1": 2644, "Renilla reference signal, replicate 2": 2992}
{"gene knocked down": "CG15717", "amplicon": "DRSC19684", "firefly Hh reporter signal, replicate 1": 95232, "firefly Hh reporter signal, replicate 2": 3.01e5, "Renilla reference signal, replicate 1": 1597, "Renilla reference signal, replicate 2": 11280}
{"gene knocked down": "CG18428", "amplicon": "DRSC15326", "firefly Hh reporter signal, replicate 1": 5.67e5, "firefly Hh reporter signal, replicate 2": 1.02e5, "Renilla reference signal, replicate 1": 28166, "Renilla reference signal, replicate 2": 2904}
{"gene knocked down": "Ir92a (Ionotropic receptor 92a)", "amplicon": "DRSC15111", "firefly Hh reporter signal, replicate 1": 5.35e5, "firefly Hh reporter signal, replicate 2": 87515, "Renilla reference signal, replicate 1": 27296, "Renilla reference signal, replicate 2": 2273}
{"gene knocked down": "CG17192", "amplicon": "DRSC15186", "firefly Hh reporter signal, replicate 1": 1.16e5, "firefly Hh reporter signal, replicate 2": 1.33e5, "Renilla reference signal, replicate 1": 4067, "Renilla reference signal, replicate 2": 3908}
{"gene knocked down": "CG33523", "amplicon": "DRSC09814", "firefly Hh reporter signal, replicate 1": 59168, "firefly Hh reporter signal, replicate 2": 46208, "Renilla reference signal, replicate 1": 6370, "Renilla reference signal, replicate 2": 3256}
{"gene knocked down": "Dhod (Dihydroorotate dehydrogenase)", "amplicon": "DRSC16647", "firefly Hh reporter signal, replicate 1": 1.12e5, "firefly Hh reporter signal, replicate 2": 88896, "Renilla reference signal, replicate 1": 4253, "Renilla reference signal, replicate 2": 3241}
{"gene knocked down": "CG34196", "amplicon": "DRSC05704", "firefly Hh reporter signal, replicate 1": 1.39e5, "firefly Hh reporter signal, replicate 2": 1.86e5, "Renilla reference signal, replicate 1": 4032, "Renilla reference signal, replicate 2": 8226}
